Experimental data: PMC11006911
No constants are given. Whether binding was seen depends on the method and setting. Binding seen in cells or lysates may run through a third protein. Some entries that bind do so weakly or less than the wild type.

The chains behind the UniProt entries cited, without tags or fusion partners.
UniProt Q96P20: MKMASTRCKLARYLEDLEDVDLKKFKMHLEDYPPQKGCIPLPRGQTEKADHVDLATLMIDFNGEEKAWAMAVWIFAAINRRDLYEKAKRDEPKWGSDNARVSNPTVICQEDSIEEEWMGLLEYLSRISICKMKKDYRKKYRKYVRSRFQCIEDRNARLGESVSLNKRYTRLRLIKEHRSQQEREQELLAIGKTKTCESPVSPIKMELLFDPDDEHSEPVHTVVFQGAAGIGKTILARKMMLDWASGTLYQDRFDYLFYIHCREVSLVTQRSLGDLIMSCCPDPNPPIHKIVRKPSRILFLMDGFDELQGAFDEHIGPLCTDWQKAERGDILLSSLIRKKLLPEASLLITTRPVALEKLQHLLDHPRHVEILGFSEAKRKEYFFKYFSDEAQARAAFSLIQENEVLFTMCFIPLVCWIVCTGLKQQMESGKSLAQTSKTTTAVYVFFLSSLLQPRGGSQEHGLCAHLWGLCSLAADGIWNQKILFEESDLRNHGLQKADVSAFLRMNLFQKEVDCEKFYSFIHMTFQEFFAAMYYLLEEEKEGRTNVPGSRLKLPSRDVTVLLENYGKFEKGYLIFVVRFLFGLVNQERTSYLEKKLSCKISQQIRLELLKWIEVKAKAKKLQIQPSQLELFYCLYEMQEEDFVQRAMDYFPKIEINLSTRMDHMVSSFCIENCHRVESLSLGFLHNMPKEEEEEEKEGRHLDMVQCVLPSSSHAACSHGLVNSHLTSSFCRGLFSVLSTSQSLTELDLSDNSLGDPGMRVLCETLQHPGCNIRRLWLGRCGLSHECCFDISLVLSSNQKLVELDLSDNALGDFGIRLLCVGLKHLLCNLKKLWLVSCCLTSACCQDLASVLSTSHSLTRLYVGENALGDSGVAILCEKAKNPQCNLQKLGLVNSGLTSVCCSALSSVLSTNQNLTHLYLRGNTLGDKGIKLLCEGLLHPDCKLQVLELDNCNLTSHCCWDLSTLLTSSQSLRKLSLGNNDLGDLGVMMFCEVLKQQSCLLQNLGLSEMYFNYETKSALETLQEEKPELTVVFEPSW
UniProt P03372: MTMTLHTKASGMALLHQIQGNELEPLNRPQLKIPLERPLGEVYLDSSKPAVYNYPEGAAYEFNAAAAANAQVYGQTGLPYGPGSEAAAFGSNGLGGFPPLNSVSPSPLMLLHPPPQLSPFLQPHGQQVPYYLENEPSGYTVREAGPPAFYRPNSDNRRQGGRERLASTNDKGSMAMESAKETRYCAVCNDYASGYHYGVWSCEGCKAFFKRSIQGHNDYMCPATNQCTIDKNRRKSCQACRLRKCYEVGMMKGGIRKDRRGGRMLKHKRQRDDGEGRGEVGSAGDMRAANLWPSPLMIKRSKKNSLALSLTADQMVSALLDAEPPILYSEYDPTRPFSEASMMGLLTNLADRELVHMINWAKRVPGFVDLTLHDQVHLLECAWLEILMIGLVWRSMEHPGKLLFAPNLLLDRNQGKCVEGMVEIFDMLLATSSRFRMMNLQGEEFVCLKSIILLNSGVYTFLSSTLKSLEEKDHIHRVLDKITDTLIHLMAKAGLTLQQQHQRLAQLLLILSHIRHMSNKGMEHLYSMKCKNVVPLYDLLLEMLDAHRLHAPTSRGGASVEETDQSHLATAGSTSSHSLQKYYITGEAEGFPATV
UniProt Q9ULZ3: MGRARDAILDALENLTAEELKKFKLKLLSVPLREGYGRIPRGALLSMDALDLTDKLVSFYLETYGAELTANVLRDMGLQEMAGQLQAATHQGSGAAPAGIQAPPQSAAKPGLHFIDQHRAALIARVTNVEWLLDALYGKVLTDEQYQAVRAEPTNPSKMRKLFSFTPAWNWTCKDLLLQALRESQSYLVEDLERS

Legend:
Flag-NLRP3 = Flag-NLRP3 (UniProt Q96P20); test: co-IP; HEK293T cells (293FT in the methods) co-transfected for 24 h; lysis buffer 50 mM Tris-HCl, 120 mM NaCl, 1% Triton X-100; anti-Flag agarose resin with 1 mg lysate protein at 4 °C overnight; blots with anti-His, anti-GFP and anti-Flag; different concentrations of ERα-His in Fig. 4F
Flag-ERα = Flag-ERα (UniProt P03372); test: as above

binding (Flag-NLRP3) | binding (Flag-ERα) | Substance
binds |  | ERα-His (estrogen receptor-α with His tag) (from UniProt P03372 1-595)
 | binds | ASC-GFP (from UniProt Q9ULZ3 1-195)
